Laboratory results as given in PMC7819943, “Rice protein-binding microarrays: a tool to detect cis-acting elements near promoter regions in rice”.
The list shows a part of the results.

The sequences below were run against T1, OsSMF1 (Oryza sativa, UniProt Q6ZLB0 1-436) (assay: protein-binding microarray (RPBM); PBS, 2% BSA, 51.3 ng/ul salmon testes DNA, 50 uM zinc acetate, 200 nM TF, 25 C, 1 h; high values mean tight binding). Settings: protein: recombinant; tags: N-terminal polyhistidine and DsRed monomer fusion (pET32a); chain copies: 2; label: CyDye5-dUTP incorporated in the synthesized complementary strand; 3' TTTTT single-stranded linker to array surface; dsDNA, one strand shown.
T1 sequence: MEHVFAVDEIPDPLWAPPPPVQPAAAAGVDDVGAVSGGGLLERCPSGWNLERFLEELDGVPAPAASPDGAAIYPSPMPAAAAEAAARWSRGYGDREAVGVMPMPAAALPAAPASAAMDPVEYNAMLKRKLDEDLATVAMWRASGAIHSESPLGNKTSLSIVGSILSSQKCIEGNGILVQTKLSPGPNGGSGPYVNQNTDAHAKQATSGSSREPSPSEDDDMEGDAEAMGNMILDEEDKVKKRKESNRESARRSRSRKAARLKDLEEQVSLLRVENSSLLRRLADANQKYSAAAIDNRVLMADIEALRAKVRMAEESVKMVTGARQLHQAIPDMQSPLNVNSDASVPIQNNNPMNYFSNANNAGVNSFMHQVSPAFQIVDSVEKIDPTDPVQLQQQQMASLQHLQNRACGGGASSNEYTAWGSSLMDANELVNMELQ
How it was run: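 Using Ni–NTA, transcription factors fused N-terminally to polyhistidine and DsRed were purified after expression in E. coli BL21-CodonPlus. These were incubated at 200 nM with a blocked, double-stranded custom Agilent array for 1 h at 25 °C in a buffer containing 50 µM zinc acetate, and the array was washed. The binding signal is per-feature fluorescence intensity (arbitrary units) on an Axon 4000B scanner.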

Row | Sequence | binding signal
1 | TCCAAGAAAGAAAGGAGAATTATCCGGCAGTTTCAGAGGTCGGAGTCACCTAGTGCAG | 22200 fluorescence intensity (a.u.)
2 | GGTAGCCCCATTGACCTTCCACCTGAATCACCCATTGAGCCGGAGTCACCTAGTGCAG | 3810 fluorescence intensity (a.u.)
3 | CAGGATGCCACGTCAGCGCCCTCTATCTCTTTCCCCTCCTCGGAGTCACCTAGTGCAG | 51300 fluorescence intensity (a.u.)
4 | GTGAGACAAAGTATTCCACGTTGTGGGGACCCACGTGACACGGAGTCACCTAGTGCAG | 3750 fluorescence intensity (a.u.)
5 | CCCAGCTGTCTTTCCTCCAGGTCACCTGACAAATGTCACTCGGAGTCACCTAGTGCAG | 3950 fluorescence intensity (a.u.)
6 | ACGTAATTATAATTTATTTTATTATGAGTTGTTTTATCACCGGAGTCACCTAGTGCAG | 3990 fluorescence intensity (a.u.)
7 | CGTTTTGATAGCGAGGCGTTAGTTCGCTGATCACCCAATCCGGAGTCACCTAGTGCAG | 23000 fluorescence intensity (a.u.)
8 | ATATATATATATATATATATAGACGTATTCCTGTATCCGCCGGAGTCACCTAGTGCAG | 4440 fluorescence intensity (a.u.)
9 | CACGCAAACCAACTCGCCACGTAGACTTCTATAAAACCCACGGAGTCACCTAGTGCAG | 9360 fluorescence intensity (a.u.)
10 | GGAGGGCAGGTGAGGTGAGGTGCGTGTTGTGTGTGTGGGTCGGAGTCACCTAGTGCAG | 4160 fluorescence intensity (a.u.)
11 | AAGAAGAAGAGTGACGTGATCCATTCATTCGTTCGTTCACCGGAGTCACCTAGTGCAG | 4880 fluorescence intensity (a.u.)
12 | TTTCTTTGTGTTTTGTTTCCTTGTAGGGTATGCTAGATCTCGGAGTCACCTAGTGCAG | 3410 fluorescence intensity (a.u.)
13 | TTATATACGCATATACAAAGCTTGCATACGTGTATACAAACGGAGTCACCTAGTGCAG | 5680 fluorescence intensity (a.u.)
14 | AGGGGATGGGGATGGGGATGGAGACGGGGACTTGGAACGACGGAGTCACCTAGTGCAG | 3580 fluorescence intensity (a.u.)
15 | GGCTTTATGCAAGTAACCAGACACGTCTTTTAGCCTTTTCCGGAGTCACCTAGTGCAG | 4900 fluorescence intensity (a.u.)
16 | TCGCCAGTATCACTGACGCCGCTGACGAGTCGGAGTCGGACGGAGTCACCTAGTGCAG | 4700 fluorescence intensity (a.u.)
17 | TAGTTATATTGTTGCCTAGAGGATTTTGGACACGTTTACACGGAGTCACCTAGTGCAG | 3220 fluorescence intensity (a.u.)
18 | GGCGCGTCGTAGCTGACGAGGCTCCCCGTCGTCGCCGTGGCGGAGTCACCTAGTGCAG | 7380 fluorescence intensity (a.u.)
19 | ACCATGGTCTAACCTACGTGGCATGCCACGTGTGCGTGTGCGGAGTCACCTAGTGCAG | 56000 fluorescence intensity (a.u.)
20 | TAGTACGGACTTCAAGACGCAATGTGTGTATGACAGGTGGCGGAGTCACCTAGTGCAG | 4200 fluorescence intensity (a.u.)
21 | AAATCGGCTCCACCTTCCCTGTCACCATGCTAATCTTTCCCGGAGTCACCTAGTGCAG | 4540 fluorescence intensity (a.u.)

Row | Sequence | binding signal
22 | GGACCCACGTGGCAGATTTTGGCGCCGCCGCGTCGCCTCTCGGAGTCACCTAGTGCAG | 17600 fluorescence intensity (a.u.)
23 | GTTTGTCACCCATGAGTCATGACTAGCGTCATGTTGTGTTCGGAGTCACCTAGTGCAG | 7660 fluorescence intensity (a.u.)
24 | TATAATGTTTGGGTGCGTTTAATTCTATTTGAATTACACTCGGAGTCACCTAGTGCAG | 48000 fluorescence intensity (a.u.)
25 | ACGTGTACGGCGCGGGGTGGAGGTGAGGGGTGGTGGGGCCCGGAGTCACCTAGTGCAG | 7050 fluorescence intensity (a.u.)
26 | CTTTTCAGTATGACTGTATGAGCGAGCCTCCGCCCGCCACCGGAGTCACCTAGTGCAG | 5400 fluorescence intensity (a.u.)
27 | TCTCTTAGCCTTAGCTCAGCTCGTCACGTTCACGTCCCAACGGAGTCACCTAGTGCAG | 3430 fluorescence intensity (a.u.)
28 | ATTTGTCTACCCAAGATGATTGGAGCCACACGTCGGTCAGCGGAGTCACCTAGTGCAG | 4220 fluorescence intensity (a.u.)
29 | TCACACGCGTCCGCATCAACCGAGCAATGAATCACGATCCCGGAGTCACCTAGTGCAG | 3870 fluorescence intensity (a.u.)
30 | ATAACAGCGGGCCTTACGTGTACATGATAGTATATAGTACCGGAGTCACCTAGTGCAG | 7000 fluorescence intensity (a.u.)
31 | GTCCTTCTGACATTCTATCTCAGCTAATTGAGTCATCACTCGGAGTCACCTAGTGCAG | 4700 fluorescence intensity (a.u.)
32 | TCTGTTGCTGACTAGTGCCCTTACCTCTACGTCTGGTTTACGGAGTCACCTAGTGCAG | 4320 fluorescence intensity (a.u.)
33 | GGTGATATACCTTGTCTAGCCTTCGCCAACGCATACAGATCGGAGTCACCTAGTGCAG | 3970 fluorescence intensity (a.u.)
34 | CTATTGTTGCACTCACACTCCAAGCTGGAGTAGCTAGCTGCGGAGTCACCTAGTGCAG | 26700 fluorescence intensity (a.u.)
35 | AGGATCGATTTACTGCGTCATCATCACAGCTCCAGCGGCCCGGAGTCACCTAGTGCAG | 8740 fluorescence intensity (a.u.)
36 | TGGACTGACATATGGGGCCCACGTGGGTCCCACCTTATTACGGAGTCACCTAGTGCAG | 6140 fluorescence intensity (a.u.)
37 | GTGTAATAGTGTGTGCGTGGGTGCGTCTGCAATGTAACTGCGGAGTCACCTAGTGCAG | 4790 fluorescence intensity (a.u.)
38 | TTTTCTACAGCGCTGCTATAGCTACTTGTCAGCTGATGTACGGAGTCACCTAGTGCAG | 3620 fluorescence intensity (a.u.)
39 | ACCATGCCTTCCTCCTCTCCACGTCCCCTGACGCAGCCTTCGGAGTCACCTAGTGCAG | 6080 fluorescence intensity (a.u.)
40 | AGCAAGCAAAGCCGAAGAATTGTTACACGGCCAAAGTGGACGGAGTCACCTAGTGCAG | 41200 fluorescence intensity (a.u.)
41 | ATTCATTGGAAAATAATTGTTTGCGTCACGTGTGGATATCCGGAGTCACCTAGTGCAG | 5550 fluorescence intensity (a.u.)
42 | CCGATAACATGGGCCGGTATCTGTAAATGGGCCGAAAGGGCGGAGTCACCTAGTGCAG | 3200 fluorescence intensity (a.u.)

Nos. 7–15, quoted:
Row | Sequence | binding signal
7 | CGTTTTGATAGCGAGGCGTTAGTTCGCTGATCACCCAATCCGGAGTCACCTAGTGCAG | 23000 fluorescence intensity (a.u.)
8 | ATATATATATATATATATATAGACGTATTCCTGTATCCGCCGGAGTCACCTAGTGCAG | 4440 fluorescence intensity (a.u.)
9 | CACGCAAACCAACTCGCCACGTAGACTTCTATAAAACCCACGGAGTCACCTAGTGCAG | 9360 fluorescence intensity (a.u.)
10 | GGAGGGCAGGTGAGGTGAGGTGCGTGTTGTGTGTGTGGGTCGGAGTCACCTAGTGCAG | 4160 fluorescence intensity (a.u.)
11 | AAGAAGAAGAGTGACGTGATCCATTCATTCGTTCGTTCACCGGAGTCACCTAGTGCAG | 4880 fluorescence intensity (a.u.)
12 | TTTCTTTGTGTTTTGTTTCCTTGTAGGGTATGCTAGATCTCGGAGTCACCTAGTGCAG | 3410 fluorescence intensity (a.u.)
13 | TTATATACGCATATACAAAGCTTGCATACGTGTATACAAACGGAGTCACCTAGTGCAG | 5680 fluorescence intensity (a.u.)
14 | AGGGGATGGGGATGGGGATGGAGACGGGGACTTGGAACGACGGAGTCACCTAGTGCAG | 3580 fluorescence intensity (a.u.)
15 | GGCTTTATGCAAGTAACCAGACACGTCTTTTAGCCTTTTCCGGAGTCACCTAGTGCAG | 4900 fluorescence intensity (a.u.)
